Assay results as given in US20250281509A1, “SEQUENTIAL HORMONE THERAPY TO IMPROVE SURVIVAL AND ENHANCE RESPONSE TO IMMUNE THERAPY IN MEN WITH PROSTATE CANCER” (The Johns Hopkins University, priority 2021, published 2025).
At least one structure is not confirmed: it was looked up by name or label, or the drawing left a doubt.

Test system: LNCaP95 and VCaP
Test: Growth of AR-V expressing CRPC cell lines with androgen or bicalutamide (FIG. 1A)
Format: cell-based, human

CC(O)(CS(=O)(=O)c1ccc(F)cc1)C(=O)Nc1ccc(C#N)c(C(F)(F)F)c1 (stereo not shown) [bicalutamide]
growth of AR-V expressing cell lines: highly resistant
